Test results published in article PMC8908937.
Results are given in words; binding and its absence hold for the method and conditions named. Binding seen in cells or lysates may run through a third protein. Some results given as binding are weak or reduced against the parent protein; the word gives no strength.

Amino acid sequences for entries named in this document (tags omitted).
UniProt P14618: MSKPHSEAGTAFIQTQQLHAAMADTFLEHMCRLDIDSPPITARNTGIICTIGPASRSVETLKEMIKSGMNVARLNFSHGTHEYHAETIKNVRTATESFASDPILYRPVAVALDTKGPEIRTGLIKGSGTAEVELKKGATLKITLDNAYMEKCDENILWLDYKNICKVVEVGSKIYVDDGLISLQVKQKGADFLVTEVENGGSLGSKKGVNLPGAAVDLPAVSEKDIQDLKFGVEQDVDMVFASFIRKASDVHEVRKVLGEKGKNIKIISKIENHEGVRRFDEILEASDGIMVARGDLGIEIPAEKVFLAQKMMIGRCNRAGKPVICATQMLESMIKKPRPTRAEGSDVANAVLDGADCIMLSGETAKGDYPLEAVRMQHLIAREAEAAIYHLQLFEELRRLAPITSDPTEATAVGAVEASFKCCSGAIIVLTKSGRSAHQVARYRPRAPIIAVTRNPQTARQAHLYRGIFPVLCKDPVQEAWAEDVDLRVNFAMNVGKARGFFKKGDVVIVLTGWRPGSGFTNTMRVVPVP

Molecular target: T1, MKRN2 (human) (UniProt Q9H000)
T1 sequence: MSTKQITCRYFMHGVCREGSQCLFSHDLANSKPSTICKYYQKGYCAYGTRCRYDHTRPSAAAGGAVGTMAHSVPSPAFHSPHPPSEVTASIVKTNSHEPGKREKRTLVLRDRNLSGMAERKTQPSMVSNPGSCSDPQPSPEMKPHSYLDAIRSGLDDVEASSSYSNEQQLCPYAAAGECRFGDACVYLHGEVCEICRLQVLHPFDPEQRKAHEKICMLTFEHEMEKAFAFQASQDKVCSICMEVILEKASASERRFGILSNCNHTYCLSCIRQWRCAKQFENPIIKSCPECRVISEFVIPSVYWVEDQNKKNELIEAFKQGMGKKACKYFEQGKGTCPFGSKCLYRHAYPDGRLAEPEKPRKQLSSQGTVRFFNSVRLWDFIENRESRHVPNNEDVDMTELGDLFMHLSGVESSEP
Experiment: co-IP; gastric cells resuspended in 1 ml lysis buffer; MKRN2 and PKM2 immunoprecipitated with 1 ug of the respective antibody, IgG (1 ug) as control; western blot with anti-MKRN2 and anti-PKM2

“Pyruvate kinase muscle isoform 2 (PKM2) (from UniProt P14618 1-531)” was tested, and the binding was “binds”.
